The list shows a part of the results.

By UniProt entry, the sequences of proteins in these tests, tags left out.
UniProt Q0JBA9, entry or part of it: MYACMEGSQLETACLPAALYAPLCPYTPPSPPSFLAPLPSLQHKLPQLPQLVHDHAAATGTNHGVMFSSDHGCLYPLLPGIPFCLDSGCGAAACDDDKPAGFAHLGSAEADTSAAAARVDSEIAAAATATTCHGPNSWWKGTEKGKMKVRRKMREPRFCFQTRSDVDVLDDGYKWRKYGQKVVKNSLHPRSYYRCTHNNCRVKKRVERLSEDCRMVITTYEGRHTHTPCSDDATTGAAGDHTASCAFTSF

In this experiment the target is OsWRKY34 (Oryza sativa, UniProt Q0JBA9 1-250). The experiment is described as follows: protein-binding microarray (RPBM); PBS, 2% BSA, 51.3 ng/ul salmon testes DNA, 50 uM zinc acetate, 200 nM TF, 25 C, 1 h; high values mean tight binding. As to conditions: protein: recombinant; tags: N-terminal polyhistidine and DsRed monomer fusion (pET32a); label: CyDye5-dUTP incorporated in the synthesized complementary strand; 3' TTTTT single-stranded linker to array surface; dsDNA, one strand shown. The procedure, abridged: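 Transcription factors were each fused at the N-terminus to a polyhistidine tag plus DsRed and expressed in E. coli BL21-CodonPlus before Ni–NTA purification. Binding to a double-stranded custom Agilent array was carried out with 200 nM protein at 25 °C for 1 h in PBS, 2% BSA, salmon testes DNA and 50 µM zinc acetate. The binding signal is per-feature fluorescence intensity, in arbitrary units, on an Axon 4000B scanner.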
Consider “ATGTGTGTGTTATTATGGTCCCGTTCGAAAGTGATGATCACGGAGTCACCTAGTGCAG”, for which the binding signal is 9390 fluorescence intensity (a.u.). Turning to “TTACTATATTATGGGACAGAGGGGTATGTTTTTTTTTAAACGGAGTCACCTAGTGCAG”, the binding signal is 8180 fluorescence intensity (a.u.).

On to “ATTTGGGTTCGAAGTCTCACCCCTTGTAATTATTTGATATCGGAGTCACCTAGTGCAG”, for which the binding signal is 8400 fluorescence intensity (a.u.). Turning to “GTTTGAGGGTTTTTTGTTGGTTTAGAATCATCTTTTTCTTCGGAGTCACCTAGTGCAG”, the binding signal was 9210 fluorescence intensity (a.u.).

For the sequence “TCCATATCCGATCCCTTCTCGATCATCGCTCATCATCACACGGAGTCACCTAGTGCAG”, the binding signal was 9010 fluorescence intensity (a.u.). Turning to “GGACCCACCTGCCGAACCAGCACGCATCGCGTCTCGCACCCGGAGTCACCTAGTGCAG”, the binding signal is 8590 fluorescence intensity (a.u.). Take “TTTTCTTCTTTCTTTCTCTCTGTCTTGTTCAATTTTTTCTCGGAGTCACCTAGTGCAG”: the binding signal was 11800 fluorescence intensity (a.u.). Next, “TACTGAGGTTTTAGAATGGGTTTTTGTATCTTAGGGAAATCGGAGTCACCTAGTGCAG”: 8280 fluorescence intensity (a.u.); “GAGATATCGTTGACTTTTAGCATAACATAGACCATTCAGCCGGAGTCACCTAGTGCAG”: 18300 fluorescence intensity (a.u.); “TAAACATGTGGCTGACTTTCTTTTTTAAAATTTTAATCCACGGAGTCACCTAGTGCAG”: 9460 fluorescence intensity (a.u.). Next, “TCCTTTTCCATCACATCAACCTGTCATACACACACAACTTCGGAGTCACCTAGTGCAG”: 8150 fluorescence intensity (a.u.). In the case of “TACCGCCGCGGGCGACTCCGGCGAGGAGGGGCGAGGGGCGCGGAGTCACCTAGTGCAG”, the binding signal was 8290 fluorescence intensity (a.u.). Regarding “CCGGCGGCGCGTTCTACCTCCTCTACCGGCCGCACCGCCCCGGAGTCACCTAGTGCAG”, the binding signal is 8440 fluorescence intensity (a.u.). On to “CCTCTGCATCTGTCCTCCATGCGCGGCCAAGCTCGCCGGCCGGAGTCACCTAGTGCAG”, for which the binding signal is 9880 fluorescence intensity (a.u.). Regarding “ACATGTGGATCCCACGATATTTTTTTGTGTGTGAATGACACGGAGTCACCTAGTGCAG”, the binding signal was 8820 fluorescence intensity (a.u.). In the case of “GTAACCTCCGACTAGGAATTCCCCGTTGCCATCTCCTCCGCGGAGTCACCTAGTGCAG”, the binding signal is 8450 fluorescence intensity (a.u.). Consider “ACAAGTCGGCAAGTGGTTTGTGTGATTATGTTTGTTACTTCGGAGTCACCTAGTGCAG”, for which the binding signal was 10400 fluorescence intensity (a.u.).

Turning to “GGCGCTTGGGTTTTGTTGGAGTCTTATCAAAGTTTTGAACCGGAGTCACCTAGTGCAG”, the binding signal is 9650 fluorescence intensity (a.u.).

“TGTTTGGGTTCTGTTGTGCTCCCTTTTCTTCTCCTAACGCCGGAGTCACCTAGTGCAG”: the binding signal is 9720 fluorescence intensity (a.u.). In the case of “TGGATACTTTTCTTTTGTACCATTACTCTCTGTGTTCTAACGGAGTCACCTAGTGCAG”, the binding signal is 8410 fluorescence intensity (a.u.).

Regarding “TGGATTCTTTGGATTGGGGCTACTTAAATGCGGGGAAGAACGGAGTCACCTAGTGCAG”, the binding signal is 9370 fluorescence intensity (a.u.).

For the sequence “CTCCATAGTCTCTGAAGCTCCTCACAGTTCAGTTCTAACCCGGAGTCACCTAGTGCAG”, the binding signal was 9020 fluorescence intensity (a.u.). Consider “CGCTGCGCTAATCACGCGCGGTCAGACGTTGACTACCATGCGGAGTCACCTAGTGCAG”, for which the binding signal was 9590 fluorescence intensity (a.u.). Turning to “GATGATGGCTATATCTTGCACGTTGCTTTCTTATGACATTCGGAGTCACCTAGTGCAG”, the binding signal was 9630 fluorescence intensity (a.u.). Take “GTTGTTCTTCTTCAGTTCTTTTCTCTCTCTCTGTCTCCTGCGGAGTCACCTAGTGCAG”: the binding signal is 8290 fluorescence intensity (a.u.). Next, “TTCGGGAATAGTGGGGAAGGAGGAAGAGTGGGTCATCTAGCGGAGTCACCTAGTGCAG”: 8910 fluorescence intensity (a.u.).

Regarding “TGTTTTTCCTATCCTTTATTTCTTTATTCCTATAATACGTCGGAGTCACCTAGTGCAG”, the binding signal is 9150 fluorescence intensity (a.u.). For the sequence “ATTTAAGTTTTCGAATTATAGTATTCAGCATGTACGTATACGGAGTCACCTAGTGCAG”, the binding signal was 8480 fluorescence intensity (a.u.). With “ATGACTCACCTTGTTTTGCATATCTTCCAGGTATTCTCTTCGGAGTCACCTAGTGCAG”, the binding signal is 11200 fluorescence intensity (a.u.). For “CTGAATTGTTTATTTCGCCCGCACTGGACTGCACGCTAACCGGAGTCACCTAGTGCAG”, the binding signal was 8260 fluorescence intensity (a.u.). As for “CAGTTACTTTTAATTTTGTCACTACGTGCACTCGCGACATCGGAGTCACCTAGTGCAG”, the figure is 8050 fluorescence intensity (a.u.). As for “CCGCAAAATCCATCCCCGCCTTGCTGCCTTACCATATCCTCGGAGTCACCTAGTGCAG”, the figure is 12300 fluorescence intensity (a.u.); as for “TCATTCTTTTTTTTAACAACAAATATTCTCTGGCTTATATCGGAGTCACCTAGTGCAG”, 8530 fluorescence intensity (a.u.); as for “TCCTTGAGTCTGTGAGTGCCACCATTGGGAATTTCCTTGACGGAGTCACCTAGTGCAG”, 8470 fluorescence intensity (a.u.).

For the sequence “ACCTGACGATTCCCCTAAGCGCCGCTCTCCCCGCTTCCATCGGAGTCACCTAGTGCAG”, the binding signal is 8460 fluorescence intensity (a.u.). As for “CCCTGTATCCTTCTCTGCTTCGTTGGTCACCATCGGTTACCGGAGTCACCTAGTGCAG”, the figure is 8520 fluorescence intensity (a.u.); as for “TTCCAGTTCGTTTCGTTGCCGTTCGCTCAGCGCTCGCTTCCGGAGTCACCTAGTGCAG”, 8030 fluorescence intensity (a.u.); as for “GCATCTCTCTCCTTCCAAACCATCCCGCAGATTAGCAGCACGGAGTCACCTAGTGCAG”, 8230 fluorescence intensity (a.u.).

As for “CCCGCCGTCTTCCCCGTCTCCGGCGGCTTCCCGCCGCCGGCGGAGTCACCTAGTGCAG”, the binding signal is 8580 fluorescence intensity (a.u.). In the case of “CTAAATGGTAGACATCCTTTTCTTGCTATCTCTCTCAACACGGAGTCACCTAGTGCAG”, the binding signal is 8850 fluorescence intensity (a.u.). As for “CATGTCGCCCTCAAGCCCCGCGCGCCATCATGTCGTCCTCCGGAGTCACCTAGTGCAG”, the figure is 8200 fluorescence intensity (a.u.). Consider “TACGCTACACACGCAATCTCACCAGCGCCCGCGCGCGCGCCGGAGTCACCTAGTGCAG”, for which the binding signal was 8050 fluorescence intensity (a.u.). As for “TGTTGCAGTGGATTTTTGTACCGTTTAATATTTTCCATCTCGGAGTCACCTAGTGCAG”, the figure is 11900 fluorescence intensity (a.u.); as for “GTTTGGTTTGGTTTGAAGAGGTCATATATGAATCACTCACCGGAGTCACCTAGTGCAG”, 8150 fluorescence intensity (a.u.). Regarding “CCCAACGCTACCTGTGAAGCCATATTTGCATCATCGTTCCCGGAGTCACCTAGTGCAG”, the binding signal is 9960 fluorescence intensity (a.u.). On to “CAGCACTCGTTTCCTTATTGAATCACATGGAGAATCTTTACGGAGTCACCTAGTGCAG”, for which the binding signal was 9410 fluorescence intensity (a.u.). “ATCTTATCGGATTTGGTTCTGGTCCAGAGGTTGACCAGAACGGAGTCACCTAGTGCAG”: the binding signal was 8510 fluorescence intensity (a.u.).

In the case of “AGGTGGAGGTGGAGGTGGAGGAGGGCGGCGGGTGGCGATGCGGAGTCACCTAGTGCAG”, the binding signal was 16500 fluorescence intensity (a.u.). On to “GCCTGGCGCGCCTCTCCTGCTCTGTTGGACCGCCGCGCCCCGGAGTCACCTAGTGCAG”, for which the binding signal is 12000 fluorescence intensity (a.u.).

“CCATTACCCGTACCCGTTAGCAGGCAGCTGCACCATAAGCCGGAGTCACCTAGTGCAG”: the binding signal was 8540 fluorescence intensity (a.u.). With “AATTTGCCACACATCCTAGTTTAATTTATTTCCGATTAATCGGAGTCACCTAGTGCAG”, the binding signal was 8160 fluorescence intensity (a.u.). Next, “GCGTAGGCCCATCAAAAACCGATCCGGCCACTCTTCTCCGCGGAGTCACCTAGTGCAG”: 8120 fluorescence intensity (a.u.).

Take “TCCCCGTCTACCACACGCCCGTGGCCGCGACCGCGAGAGCCGGAGTCACCTAGTGCAG”: the binding signal is 8750 fluorescence intensity (a.u.). For the sequence “CCCACCTTTCGGTCTTCTTATTTAGTTCCAAACTTTTTCTCGGAGTCACCTAGTGCAG”, the binding signal is 10300 fluorescence intensity (a.u.).
